Earlier results as cited in patent publication US20180303976A1, “COVALENT MODIFICATION OF DECELLULARIZED ALLOGENEIC GRAFTS WITH ACTIVE PHARMACEUTICALS” (THOMAS JEFFERSON UNIVERSITY, priority 2015, published 2018).
At least one structure is not confirmed: it was looked up by name or label, or the drawing left a doubt.

Tested on: osteoblast-induced bone marrow cells
Conditions: low Doxycycline concentrations (1-5 g/ml) in solution

Compound: C[C@H]1c2cccc(O)c2C(=O)C2=C(O)[C@]3(O)C(=O)C(C(N)=O)=C(O)[C@@H](N(C)C)[C@@H]3[C@@H](O)[C@@H]21 [Doxycycline]
- effect on proliferation of osteoblast-induced bone marrow cells: stimulate the proliferation
